PubChem BioAssay AID504764, Drosophila RNAi Screening Center – 2011
Screen: 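Genes whose knock-down alters Notch-dependent transcription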 (primary screen). Cell system: Drosophila Kc167 cells. Reagents: long dsRNA against Drosophila genes. Timing: about 5 days (4 days dsRNA, then 24 h after transfection). Treatment: transfection of constitutively active membrane-tethered Notch lacking the extracellular domain, read 24 h later. Detection: 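Firefly luciferase from an E(spl)m3 reporter with active Notch, plus control-promoter and uninduced reporter wells for normalisation; unnormalised counts, duplicate wells a and b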. Reading the numbers: induced reporter light, run 1, well a and induced reporter light, run 1, well b: higher = more light from the Notch target reporter with active Notch; control promoter light, run 1, well a and control promoter light, run 1, well b: higher = more light from the viral control promoter (cell number, transfection, viability); uninduced reporter light, run 1, well a: higher = more light from the Notch target reporter without active Notch. Rule for the call: 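Wells with low control signal or poorly matching duplicates excluded; duplicates averaged; per source plate, z beyond ±2 for induced/control log2 ratio or beyond ±1.8 for induced/uninduced marks a hit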. Meaning of the calls: active = modifier hit (raised or lowered Notch signal); inactive = not a hit.
In all, the deposit lists about 22,000 reagents; below is an unselected part of those with a known target gene and a result. In the full data, 403 (1.9%) got an active call. 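Unnormalised raw counts per well; ratio z-scores behind the hit calls and whether each hit raises or lowers signal are not deposited.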 A plus sign joins genes that one reagent is predicted to hit. No sequences are given here. Not stated in the record: the amount of reagent.

| Gene | amplicon | induced reporter light, run 1, well a | induced reporter light, run 1, well b | control promoter light, run 1, well a | control promoter light, run 1, well b | uninduced reporter light, run 1, well a | Call |
| --- | --- | --- | --- | --- | --- | --- | --- |
| fuss (GeneID 43835) | DRSC17200 | 1.07e5 | 90395 | 2.02e5 | 1.57e5 | 7540 | inactive |
| fuss (GeneID 43835) | DRSC21452 | – | – | – | – | – | inactive |
| Khc-73 (GeneID 36718) | DRSC07449 | 1.15e5 | 99150 | 1.98e5 | 1.93e5 | 9532 | inactive |
| Vsx2 (GeneID 31469) | DRSC17397 | 76370 | 56435 | 62745 | 50310 | 4145 | inactive |
| Vsx2 (GeneID 31469) | DRSC18087 | 51550 | 54180 | 86625 | 84330 | 6590 | inactive |
| Vsx2 (GeneID 31469) | DRSC18088 | 1.28e5 | 1.23e5 | 2.51e5 | 2.34e5 | 9700 | inactive |
| Vsx2 (GeneID 31469) | DRSC18089 | 1.36e5 | 1.34e5 | 2.22e5 | 2.71e5 | 10955 | inactive |
| CG31870 (GeneID 318993) | DRSC21681 | – | – | – | – | – | inactive |
| CG32814 (GeneID 318223) | DRSC17670 | 36520 | 56100 | 59585 | 75025 | 4935 | inactive |
| NimC3 (GeneID 48772) | DRSC03556 | 1.30e5 | 1.37e5 | 1.29e5 | 1.61e5 | 11405 | inactive |
| CG18327 (GeneID 36567) | DRSC06722 | 96530 | 1.10e5 | 1.12e5 | 1.23e5 | 8930 | inactive |
| PLCXD (GeneID 34623) | DRSC02427 | 1.42e5 | 1.41e5 | 1.47e5 | 1.66e5 | 13385 | inactive |
| Rai1 (GeneID 2768882) | DRSC20157 | 67355 | 62755 | 79350 | 54155 | 8005 | inactive |
| beat-Vb (GeneID 41583) | DRSC12940 | 1.78e5 | 1.57e5 | 1.80e5 | 1.81e5 | 11005 | inactive |
| beat-Vb (GeneID 41583) | DRSC14844 | 2.26e5 | 2.24e5 | 3.83e5 | 3.24e5 | 13805 | inactive |
| beat-Vb (GeneID 41583) | DRSC14845 | 11880 | 11390 | 47195 | 29330 | 1332 | inactive |
| CIA30 (GeneID 43503) | DRSC16266 | 1.94e5 | 1.91e5 | 2.69e5 | 2.90e5 | 13500 | inactive |
| Peritrophin-A (GeneID 33023) | DRSC20570 | 1.22e5 | 1.16e5 | 1.01e5 | 49555 | 8610 | inactive |
| CG5023 (GeneID 42400) | DRSC15697 | 1.92e5 | 1.65e5 | 2.08e5 | 2.08e5 | 12680 | inactive |
| CG3663 (GeneID 37944) | DRSC04402 | 1.82e5 | 1.68e5 | 1.82e5 | 1.83e5 | 13728 | inactive |
| Ntan1 (GeneID 37147) | DRSC07546 | 1.25e5 | 83490 | 87365 | 69015 | 9082 | inactive |
| d-cup (GeneID 41580) | DRSC14846 | 1.01e5 | 1.21e5 | 99660 | 1.02e5 | 6560 | inactive |
| EAChm (GeneID 39637) | DRSC10010 | 2.01e5 | 1.43e5 | 2.20e5 | 2.14e5 | 10835 | inactive |
| CG33494 (GeneID 2768686) | DRSC13715 | 2.46e5 | 2.31e5 | 2.13e5 | 2.28e5 | 19605 | inactive |
| CG42500 (GeneID 50032) | DRSC14822 | 2.96e5 | 2.78e5 | 2.65e5 | 2.76e5 | 22005 | inactive |
| Polr3E (GeneID 40325) | DRSC11880 | 1.16e5 | 1.03e5 | 82615 | 90055 | 6955 | inactive |
| CR15821 (GeneID 3771832) | DRSC08481 | 1.36e5 | 1.33e5 | 1.62e5 | 1.47e5 | 8195 | inactive |
| CG31659 (GeneID 318875) | DRSC00760 | 1.08e5 | 1.42e5 | 1.09e5 | 74965 | 10210 | inactive |
| cuff (GeneID 36269) | DRSC06315 | 1.30e5 | 1.22e5 | 1.86e5 | 1.59e5 | 11145 | inactive |
| Gr2a (GeneID 31093) | DRSC18603 | 1.57e5 | 1.69e5 | 2.46e5 | 2.84e5 | 10732 | inactive |
| Pak3 (GeneID 41995) | DRSC15017 | 1.24e5 | 1.29e5 | 1.27e5 | 1.47e5 | 13195 | inactive |
| CG12885 (GeneID 43308) | DRSC14572 | 61705 | 43540 | 68880 | 74885 | 9165 | inactive |
| CG7084 (GeneID 42606) | DRSC16194 | 1.50e5 | 1.52e5 | 2.11e5 | 1.78e5 | 16400 | inactive |
| Pomp (GeneID 35342) | DRSC03201 | 81430 | 85825 | 57105 | 63975 | 5105 | inactive |
| Muc26B (GeneID 50424) | DRSC02322 | 1.20e5 | 84545 | 92165 | 87365 | 6265 | inactive |
| CG42507 + Trl | DRSC09325 | 1.60e5 | 1.25e5 | 1.62e5 | 1.89e5 | 13265 | inactive |
| CG42507 + Trl | DRSC11308 | 2735 | 4480 | 4015 | 3315 | 2495 | inactive |
| Cdk5alpha (GeneID 34385) | DRSC03290 | 1.16e5 | 1.47e5 | 66615 | 82110 | 18925 | inactive |
| Cpr100A (GeneID 43657) | DRSC14465 | 1.09e5 | 1.10e5 | 1.54e5 | 1.79e5 | 9730 | inactive |
| Nf1 (GeneID 43149) | DRSC16758 | 2.22e5 | 1.87e5 | 2.69e5 | 3.24e5 | 16085 | inactive |
| Arp1 (GeneID 41566) | DRSC14118 | 20095 | 25930 | 31840 | 25975 | 1770 | inactive |
| MYPT-75D (GeneID 40032) | DRSC10743 | 1.16e5 | 1.01e5 | 60810 | 78340 | 9150 | inactive |
| ARY (retired record) (GeneID 3355076) | DRSC20867 | 2.69e5 | 2.62e5 | 4.16e5 | 4.26e5 | 20115 | inactive |
| baf (GeneID 34095) | DRSC03051 | 1.33e5 | 1.45e5 | 1.01e5 | 1.40e5 | 13555 | inactive |
| CG42749 (GeneID 31438) | DRSC18091 | 1.17e5 | 1.34e5 | 1.92e5 | 2.19e5 | 10200 | inactive |
| CG42749 (GeneID 31438) | DRSC18092 | 1.53e5 | 1.43e5 | 2.85e5 | 2.41e5 | 10715 | inactive |
| ninaG (GeneID 41369) | DRSC16102 | 68410 | 70535 | 54620 | 43085 | 5540 | inactive |
| GABA-B-R1 (GeneID 34878) | DRSC22038 | – | – | – | – | – | inactive |
| MFS1 (GeneID 246519) | DRSC04115 | 2.12e5 | 2.16e5 | 1.89e5 | 1.74e5 | 14670 | inactive |
| fzy (GeneID 34968) | DRSC03534 | 63710 | 65425 | 82070 | 83465 | 7560 | inactive |
| CG9213 (GeneID 32490) | DRSC20170 | 1.05e5 | 1.12e5 | 1.11e5 | 82055 | 6420 | inactive |
| Alp7 (GeneID 37538) | DRSC04355 | 43360 | 27355 | 42300 | 49365 | 1630 | inactive |
| Drsl2 (GeneID 38408) | DRSC08160 | 1.25e5 | 98520 | 1.48e5 | 1.55e5 | 7530 | inactive |
| CG4882 (GeneID 37787) | DRSC04495 | 1.60e5 | 1.63e5 | 1.69e5 | 1.83e5 | 12935 | inactive |
| CG14331 (GeneID 42099) | DRSC14810 | 1.89e5 | 1.62e5 | 1.44e5 | 1.61e5 | 12820 | inactive |
| CG3339 (GeneID 43295) | DRSC13821 | 2.26e5 | 2.03e5 | 2.26e5 | 2.40e5 | 17670 | inactive |
| CG3339 (GeneID 43295) | DRSC15479 | 1.18e5 | 1.47e5 | 2.10e5 | 1.99e5 | 12085 | inactive |
| CG2681 (GeneID 31258) | DRSC18464 | 2.11e5 | 1.90e5 | 2.15e5 | 2.05e5 | 12655 | inactive |
| fun (retired record) (GeneID 5657936) | DRSC12300 | 1.31e5 | 1.18e5 | 86380 | 76910 | 12310 | inactive |
| CG10466 (GeneID 35268) | DRSC02060 | 1.29e5 | 74980 | 89795 | 69605 | 5585 | inactive |
| btd (GeneID 31912) | DRSC18747 | 51875 | 60230 | 1.09e5 | 1.16e5 | 2915 | inactive |
| alpha-Est9 (GeneID 40897) | DRSC12621 | 78125 | 94830 | 89350 | 65775 | 6595 | inactive |
| CG30089 (GeneID 36736) | DRSC06126 | 51190 | 59045 | 76355 | 1.02e5 | 4065 | inactive |
| CG30089 (GeneID 36736) | DRSC06127 | 5630 | 4235 | 6732 | 4755 | 1035 | inactive |
| CG30089 (GeneID 36736) | DRSC06267 | 1.24e5 | 82280 | 1.55e5 | 1.48e5 | 9182 | inactive |
| CG30089 (GeneID 36736) | DRSC06268 | 1.92e5 | 1.72e5 | 2.83e5 | 2.48e5 | 13205 | inactive |
| CG30089 (GeneID 36736) | DRSC21694 | – | – | – | – | – | inactive |

Single entries from above:
NimC3 (GeneID 48772) [DRSC03556], uninduced reporter light, run 1, well a → 11405
alpha-Est9 (GeneID 40897) [DRSC12621], induced reporter light, run 1, well b = 94830
Under “control promoter light, run 1, well b”, Nf1 (GeneID 43149) [DRSC16758] reads 3.24e5
Entry for baf (GeneID 34095) [DRSC03051] under “Call”: inactive
